Literature values as cited in US7416741B2, “Copper lowering treatment of inflammatory and fibrotic diseases” (The Regents of the University of Michigan, priority 2002, dated 2008).
At least one structure is not confirmed: it was looked up by name or label, or the drawing left a doubt.

Tests used:
TNFα = settings: PBC patients after 2 years of therapy; 324 in PBC, 77 in normal controls; cited from earlier work
hAPP tg mice = settings: pharmacologic treatment of hAPP tg mice; cited from earlier work

## C[C@H](CCC(=O)O)[C@H]1CC[C@H]2[C@@H]3[C@@H](O)C[C@@H]4C[C@H](O)CC[C@]4(C)[C@H]3CC[C@]12C [ursodiol, ursodeoxycholic acid]
TNFα
  serum TNFα: 124 pg/mL

## COC[C@H]1OC(=O)c2coc3c2[C@@]1(C)C1=C(C3=O)[C@@H]2CCC(=O)[C@@]2(C)C[C@H]1OC(C)=O [wortmannin]
hAPP tg mice
  amyloid pathology: prevented
